In paper PMC4075450:

T1: ARF6 (auxin response factor 6), yeast two-hybrid fusion (Arabidopsis thaliana) (UniProt Q9ZTX8)
T1 sequence: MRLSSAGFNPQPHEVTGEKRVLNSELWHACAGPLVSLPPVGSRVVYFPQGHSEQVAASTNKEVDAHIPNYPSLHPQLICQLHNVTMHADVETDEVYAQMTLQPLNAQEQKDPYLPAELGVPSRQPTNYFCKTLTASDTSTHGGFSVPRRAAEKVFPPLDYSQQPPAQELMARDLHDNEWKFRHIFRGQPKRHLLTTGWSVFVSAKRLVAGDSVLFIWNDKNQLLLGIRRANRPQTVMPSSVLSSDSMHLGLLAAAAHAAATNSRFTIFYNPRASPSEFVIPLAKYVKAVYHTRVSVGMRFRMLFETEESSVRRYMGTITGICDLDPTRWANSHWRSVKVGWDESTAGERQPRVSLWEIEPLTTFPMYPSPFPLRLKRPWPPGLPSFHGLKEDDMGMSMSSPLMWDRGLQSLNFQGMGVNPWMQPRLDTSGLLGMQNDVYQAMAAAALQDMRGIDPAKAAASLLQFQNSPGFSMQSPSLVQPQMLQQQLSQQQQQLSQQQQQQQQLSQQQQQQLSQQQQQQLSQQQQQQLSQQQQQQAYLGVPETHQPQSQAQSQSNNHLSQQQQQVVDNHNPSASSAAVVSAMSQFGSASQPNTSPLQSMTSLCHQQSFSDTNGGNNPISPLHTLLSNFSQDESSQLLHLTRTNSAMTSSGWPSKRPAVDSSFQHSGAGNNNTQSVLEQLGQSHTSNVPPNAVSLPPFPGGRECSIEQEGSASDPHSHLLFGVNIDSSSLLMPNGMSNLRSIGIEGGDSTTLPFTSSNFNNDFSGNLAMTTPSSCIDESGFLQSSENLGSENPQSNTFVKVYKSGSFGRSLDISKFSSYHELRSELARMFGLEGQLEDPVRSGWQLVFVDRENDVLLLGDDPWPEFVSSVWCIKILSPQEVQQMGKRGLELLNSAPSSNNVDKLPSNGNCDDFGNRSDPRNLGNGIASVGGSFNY


Key:
Experiment in all cases: two-hybrid; yeast; clones grown on synthetic dropout medium without histidine (−HIS) plus 1 mM 3AT (1 or 5 mM 3AT for the ARF6 fragments); activation domain and DNA binding domain fusions
[1] = target: T1, ARF6 (auxin response factor 6), yeast two-hybrid fusion (Arabidopsis thaliana)
[2] = target: ARF6 D (DNA binding domain of ARF6), yeast two-hybrid fusion (Arabidopsis thaliana)
[3] = target: ARF6 M (middle domain of ARF6), yeast two-hybrid fusion (Arabidopsis thaliana)

Molecule	binding [1]	binding [2]	binding [3]
C-terminal domain of BZR1, yeast two-hybrid fusion (Arabidopsis thaliana) (domain or fragment)	binds	–	–
RGA-C (RGA with deletion of N-terminal 208 amino acids), yeast two-hybrid fusion (domain or fragment, UniProt Q9SLH3 209-587) VILVDSQENGVRLVHALMACAEAIQQNNLTLAEALVKQIGCLAVSQAGAMRKVATYFAEALARRIYRLSPPQNQIDHCLSDTLQMHFYETCPYLKFAHFTANQAILEAFEGKKRVHVIDFSMNQGLQWPALMQALALREGGPPTFRLTGIGPPAPDNSDHLHEVGCKLAQLAEAIHVEFEYRGFVANSLADLDASMLELRPSDTEAVAVNSVFELHKLLGRPGGIEKVLGVVKQIKPVIFTVVEQESNHNGPVFLDRFTESLHYYSTLFDSLEGVPNSQDKVMSEVYLGKQICNLVACEGPDRVERHETLSQWGNRFGSSGLAPAHLGSNAFKQASMLLSVFNSGQGYRVEESNGCLMLGWHTRPLITTSAWKLSTAAY	–	binds weakly	binds

No constants are given. Whether binding was seen depends on the method and setting. Binding can be weak; no strength is given. Sequences can lack the tags named with a protein.
